The source of these data is patent EP0420021B1, “Hydrophilic laminated porous membranes and methods of preparing same” (ABBOTT LABORATORIES, priority 1989, dated 1991).

Some compounds share one wording; it may come from a single statement.

For this data set, the system named is anti-HCG antibody. Briefly: Immunochromatography signal development (antibody binding to surfactant-treated nitrocellulose membrane).
Where [1] appears, read: Part D: surfactant 1% w/v from isopropanol solution.

As for `CCCCCCCCCCCCCCCC[N+](C)(C)CC.[Br-]` [cethydimethylethylammonium Br], the “signal development during immunochromatography” value under setting [1] is “no decrease in signal development”.
On to `CCCCCCCCCCCCOS(=O)(=O)[O-].[Na+]` [sodium dodecyl sulfate], for which the “signal development during immunochromatography” value (Part E: 0.1% in water solution) is “no decrease in signal development”.
Turning to `CCCCCCCCCCCCCCCC[N+](C)(C)C.[Br-]` [hexadecyltrimethylammonium Br, hexadecyltrimethylammonium bromide], the “signal development during immunochromatography” value under setting [1] is “no decrease in signal development”.
`CCCCCCCS(=O)(=O)O` [heptane sulfonic acid]: for the setting “Part E: 1% in water solution”, the “signal development during immunochromatography” value is on record as “no decrease in signal development”.
As for `CCCCCCCCCCS(=O)(=O)O` [decane sulfonic acid], the “signal development during immunochromatography” value (Part E: 1% in water solution) is “no decrease in signal development”.
On to `CCCCCCCCCCCCS(=O)(=O)O` [dodecane sulfonic acid], for which, where the note is “Part E: 0.1% in water solution”, the “signal development during immunochromatography” value is “no decrease in signal development”.
`C[C@H](CCC(=O)NCCC[N+](C)(C)CCCS(=O)(=O)[O-])[C@H]1CC[C@H]2[C@@H]3[C@H](O)C[C@@H]4C[C@H](O)CC[C@]4(C)[C@H]3C[C@H](O)[C@]12C` [CHAPS]: the “signal development during immunochromatography” value (Part A: surfactant 1% w/v from water, 50 mIU HCG urine) was “loss of signal development”.
Turning to `CCCCCCCCOC(=O)CC(C(=O)OCCCCCCCC)S(=O)(=O)O` (stereo not drawn) [dioctyl sulfosuccinate], under “Part A: surfactant 1% w/v from isopropanol, 50 mIU HCG urine”, the “signal development during immunochromatography” value is reported as “loss of signal development”.
On to `CCCCCCCCCCCCCCCCO` [cetyl alcohol], for which the “signal development during immunochromatography” value (Part B: surfactant 0.1% w/v from isopropanol, 50 mIU HCG urine) is “no reduction in signal development”.
With `CCCCCS(=O)(=O)O` [pentane sulfonic acid], the “signal development during immunochromatography” value (Part E: 1% in water solution) was “no decrease in signal development”.
On to `CCCCCCCCS(=O)(=O)O` [octane sulfonic acid], for which the “signal development during immunochromatography” value (Part E: 1% in water solution) is given as “no decrease in signal development”.
With `CCCCCCCCCCCC[N+](C)(C)C.[Br-]` [dodecyltrimethylammonium Br, dodecyltrimethylammonium bromide], the “signal development during immunochromatography” value under setting [1] is listed as “no decrease in signal development”.
